PubChem BioAssay AID1224826 – NIAID | 2016

- Screen: 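Genes that change LPS-induced Tnf promoter activity in mouse macrophages when knocked down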 (primary screen)
- Cell system: RAW264.7 G9 macrophages from mouse bearing reporters for p65 (GFP) and the Tnf promoter (mCherry)
- Reagents: siRNA pool against mouse genes, 100 nM
- Duration: 16 h of LPS stimulation, after 2 days of siRNA transfection
- Treatment: bacterial lipopolysaccharide (Salmonella minnesota R595), 10 ng/ml
- Measured: 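Imaged Tnf reporter mCherry in nuclei, minus background, normalised per plate to the median and expressed as robust z-scores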
- Scale: Tnf reporter robust z-score: higher = stronger Tnf promoter reporter signal after LPS
- Hit rule: 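a well counts as active at a score of -1.3 or below (Tlr4 knock-down control median) or above 3 (raised signal); controls and wells holding fewer than 50 cells are excluded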
- Calls: active = Tnf reporter clearly lowered or raised; inactive = no clear change in Tnf reporter
The deposit covers about 17,000 reagents; below is a part drawn at random. Over the whole deposit, about 1,110 (6.6%) got an active call. 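Active means lowered or raised reporter signal; replicate intensities are raw and not normalised per plate.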 Not all columns of the deposit are shown.

Against Gins3, the values are Tnf reporter robust z-score -0.46; fewer than 50 cells in well enough cells in well; inactive.
After knock-down of Trp53inp1, the screen gave Tnf reporter robust z-score -0.05; fewer than 50 cells in well enough cells in well; inactive.
After knock-down of Tubgcp4, the record shows Tnf reporter robust z-score 0.99; fewer than 50 cells in well enough cells in well; inactive.
With knock-down of Smc6 the results were fewer than 50 cells in well fewer than 50 cells per well; well left out of calls; inactive.
Depletion of Tmem214 came out at: Tnf reporter robust z-score 1.96; fewer than 50 cells in well enough cells in well; inactive.
For Arfgap3 the deposit lists Tnf reporter robust z-score -0.12; fewer than 50 cells in well enough cells in well; inactive.
Depletion of Hoxb9 gave: Tnf reporter robust z-score 0.07; fewer than 50 cells in well enough cells in well; inactive.
After knock-down of Mrps10 the results were Tnf reporter robust z-score -0.57; fewer than 50 cells in well enough cells in well; inactive.
Against Pnlip, the values are Tnf reporter robust z-score 0.14; fewer than 50 cells in well enough cells in well; inactive.
After knock-down of Ppib, the screen gave Tnf reporter robust z-score 0.91; fewer than 50 cells in well enough cells in well; inactive.
With knock-down of Nxf1, the screen gave fewer than 50 cells in well fewer than 50 cells per well; well left out of calls; inactive.
With knock-down of Ctsj, the record shows Tnf reporter robust z-score -0.46; fewer than 50 cells in well enough cells in well; inactive.
Bhlhb9 showed Tnf reporter robust z-score -0.44; fewer than 50 cells in well enough cells in well; inactive.
Tst scored Tnf reporter robust z-score -0.69; fewer than 50 cells in well enough cells in well; inactive.
Silencing of Pgp gave: Tnf reporter robust z-score 3.5; fewer than 50 cells in well enough cells in well; active.
After knock-down of Or8b53, the screen gave Tnf reporter robust z-score 3.04; fewer than 50 cells in well enough cells in well; active.
Trappc13 showed fewer than 50 cells in well fewer than 50 cells per well; well left out of calls; inactive.
With knock-down of Bcat2, the record shows Tnf reporter robust z-score 1.58; fewer than 50 cells in well enough cells in well; inactive.
Against Clec1b, the values are Tnf reporter robust z-score -1.41; fewer than 50 cells in well enough cells in well; active.
With knock-down of Fam76a the results were Tnf reporter robust z-score -1.4; fewer than 50 cells in well enough cells in well; active.
For Chmp5 the deposit lists fewer than 50 cells in well fewer than 50 cells per well; well left out of calls; inactive.

Reagents listed above with an active call (4):
Pgp → Tnf reporter robust z-score: 3.5; fewer than 50 cells in well: enough cells in well; call: active
Or8b53 → Tnf reporter robust z-score: 3.04; fewer than 50 cells in well: enough cells in well; call: active
Clec1b → Tnf reporter robust z-score: -1.41; fewer than 50 cells in well: enough cells in well; call: active
Fam76a → Tnf reporter robust z-score: -1.4; fewer than 50 cells in well: enough cells in well; call: active
